Measurements reported in PubChem BioAssay AID1224830 (NIAID, 2016).

Test: 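Genes whose knock-down alters the TNF-alpha reporter response to LPS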 (primary screen)
Cell system: human THP-1 monocytic leukaemia cells, TNF dual-luciferase reporter clone, PMA-differentiated to macrophage-like cells
Reagent: siRNA pool against human genes, 50 nM
Time to read-out: LPS for 4 h, given about 3 days after siRNA transfection
Conditions: bacterial LPS (TLR4 ligand), 10 ng/ml
Measurement: 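TNF firefly reporter luminescence divided by renilla, normalised to the plate median, then turned into a robust z-score for each replicate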
Reading the numbers: TNF reporter robust z-score: higher = stronger TNF reporter response to LPS
Call rule: 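a well is active when its z-score exceeds 2.8 or falls below -1.5; control wells carry no call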
In all, the deposit lists about 18,000 reagents; this is a random part of them. Over the whole deposit, about 2,900 (16%) are marked active. 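Calls are made per well; low scores hint the gene aids the LPS response, high scores that it dampens it.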 Repeated entries: four replicate wells of each siRNA pool.

gene | TNF reporter robust z-score | activity call
PSMD7 | -1.71 | active
PSMD7 | -1.5 | inactive
PSMD7 | -1.69 | active
PSMD7 | -1.19 | inactive
NANS | -0.48 | inactive
NANS | 0.85 | inactive
NANS | 0.01 | inactive
NANS | 0.24 | inactive
HYAL2 | 1.01 | inactive
HYAL2 | 0.32 | inactive
HYAL2 | 2.67 | inactive
HYAL2 | 0.07 | inactive
RO60 | 0.63 | inactive
RO60 | -0.02 | inactive
RO60 | 0.15 | inactive
RO60 | -0.04 | inactive
KIF7 | -0.93 | inactive
KIF7 | -1 | inactive
KIF7 | -1.78 | active
KIF7 | -1.02 | inactive
MSRA | -0.44 | inactive
MSRA | -0.32 | inactive
MSRA | 0.4 | inactive
MSRA | -0.27 | inactive

A stretch from the list above, as a working copy:
gene | TNF reporter robust z-score | activity call
RO60 | 0.15 | inactive
RO60 | -0.04 | inactive
KIF7 | -0.93 | inactive
KIF7 | -1 | inactive

The list goes on.
gene | TNF reporter robust z-score | activity call
LANCL3 | 0.22 | inactive
LANCL3 | -0.02 | inactive
LANCL3 | -0.3 | inactive
LANCL3 | 0.89 | inactive
ZBTB10 | -0.04 | inactive
ZBTB10 | -0.6 | inactive
ZBTB10 | -0.52 | inactive
ZBTB10 | -0.47 | inactive
UBR2 | -0.35 | inactive
UBR2 | 0.09 | inactive
UBR2 | 0.19 | inactive
ITGB1BP1 | -1.81 | active
ITGB1BP1 | -1.62 | active
ITGB1BP1 | -2.02 | active
ITGB1BP1 | -1.96 | active
RASAL1 | -0.61 | inactive
RASAL1 | -0.45 | inactive
RASAL1 | -1.03 | inactive
RASAL1 | -1.56 | active
ZDHHC6 | 1.18 | inactive
ZDHHC6 | 0.27 | inactive
ZDHHC6 | 0.82 | inactive
ZDHHC6 | 1.51 | inactive
